{"source": "PubChem BioAssay AID1224826 | NIAID | 2016", "test": "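Regulators of Tlr4 signalling leading to Tnf-alpha expression in macrophages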 (primary screen)", "cells": "RAW264.7 G9 macrophages from mouse bearing reporters for p65 (GFP) and the Tnf promoter (mCherry)", "reagent": "siRNA pool against mouse genes, 100 nM", "timing": "16 h of LPS stimulation, after 2 days of siRNA transfection", "conditions": "bacterial lipopolysaccharide (Salmonella minnesota R595), 10 ng/ml", "detection": "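Imaged Tnf reporter mCherry in nuclei, minus background, normalised per plate to the median and expressed as robust z-scores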", "direction": "Tnf reporter robust z-score: higher = stronger Tnf promoter reporter signal after LPS", "call rule": "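a well counts as active at a score of -1.3 or below (Tlr4 knock-down control median) or above 3 (raised signal); controls and wells holding fewer than 50 cells are excluded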", "calls": "active = Tnf reporter clearly lowered or raised; inactive = no clear change in Tnf reporter", "note": "Here is one part, drawn at random, of about 17,000 reagents. About 1,110 of them (6.6%) count as active. 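Active means lowered or raised reporter signal; replicate intensities are raw and not normalised per plate.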 Entries without a mark were called inactive. Not all columns of the deposit are shown. Reagent sequences are not shown."}
{"Gene": "Scgb2b2", "Tnf reporter robust z-score": 2.37, "fewer than 50 cells in well": "enough cells in well"}
{"Gene": "Aldh1b1", "Tnf reporter robust z-score": -0.88, "fewer than 50 cells in well": "enough cells in well"}
{"Gene": "Sema6c", "fewer than 50 cells in well": "fewer than 50 cells per well; well left out of calls"}
{"Gene": "Aldh5a1", "Tnf reporter robust z-score": 0.33, "fewer than 50 cells in well": "enough cells in well"}
{"Gene": "Ucn", "Tnf reporter robust z-score": -0.86, "fewer than 50 cells in well": "enough cells in well"}
{"Gene": "Hnrnpu", "Tnf reporter robust z-score": 1.49, "fewer than 50 cells in well": "enough cells in well"}
{"Gene": "Ano1", "Tnf reporter robust z-score": -0.08, "fewer than 50 cells in well": "enough cells in well"}
{"Gene": "Hpcal4", "Tnf reporter robust z-score": -0.26, "fewer than 50 cells in well": "enough cells in well"}
{"Gene": "Rab19", "Tnf reporter robust z-score": -0.77, "fewer than 50 cells in well": "enough cells in well"}
{"Gene": "Mapk4", "Tnf reporter robust z-score": 0.5, "fewer than 50 cells in well": "enough cells in well"}
{"Gene": "Crygd", "Tnf reporter robust z-score": 0.38, "fewer than 50 cells in well": "enough cells in well"}
{"Gene": "Il6ra", "Tnf reporter robust z-score": -0.33, "fewer than 50 cells in well": "enough cells in well"}
{"Gene": "Calhm5", "Tnf reporter robust z-score": -0.45, "fewer than 50 cells in well": "enough cells in well"}
{"Gene": "Qrich1", "Tnf reporter robust z-score": 0.21, "fewer than 50 cells in well": "enough cells in well"}
